Sequences and labels used below:
T1: Homer1 EVH1 domain
T1 chain: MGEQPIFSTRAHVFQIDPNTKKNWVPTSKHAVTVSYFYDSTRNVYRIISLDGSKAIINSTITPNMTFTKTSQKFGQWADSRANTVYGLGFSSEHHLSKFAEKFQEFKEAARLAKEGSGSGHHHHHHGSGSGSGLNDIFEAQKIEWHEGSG

The other results are listed elsewhere or left out. Values are worked out from sequencing counts and are noisy.

In the experiment the target is T1, Homer1 EVH1 domain. The experiment can be described thus: enrichment score (AUC of log2 frequency ratio across FACS sorting rounds) (log2 AUC); higher = stronger enrichment for Homer1 EVH1 binding.
FSDVFFKGFKWGFAAFVVAVGAEYYLESLNKDKKHH: the enrichment score turned out to be 1.38.
The figure for ILIVMVPFLLILLSYIRVLFAILKMPSTTGRQKAFS is 0.891.
Take LARRASGPICLLLASLLSLVSAVSACRVFKPWPLSF: the enrichment score was found to be 1.16.
As to FLFPFLIILTSYTLIWKALKKAYEIQTNKPRNDDIF, the enrichment score is 2.54.
Regarding KMLYPQVWREAATQVFFALGLGFGGVIAFSSYNKQD, the enrichment score is -0.299.
In the case of YACPEILRGLPYNPFLSDTWSMGVILYTLVVAHLPL it was -0.0714; in that of INYFENYDPMDSVALNTAYAYATVLTFCTLILAILH, 0.845.
The figure for QVSVRPLQHTQYERFIPSAYPYYASAFSMMLGLFIF is -0.548.
Regarding MWGYLSLMPVFLAVWAISGVWIVFAIAVTNRTVDLS, the enrichment score is 1.86.
The figure for MPVMRLFPCFLQLLAGLALLAVPPQQWALSAGNGSS is 0.159; for HSWQHWLSLPLALLYLSALAANTLILIIIWQNPSLQ it is 1.72; for FSLPLWLIFIICVCYYVAVFPFIGLGKVFFTEKFGF it is -0.354.
LFIFCFIVPLSLICFSYTQLLRALKAVAAQQQESAT: the enrichment score was 1.03.
In the case of MDRAARCSGASSLPLLLALALGLVILHCVVADGNST it was 1.3; in that of KMVGDVTGAQAYASTAKCLNIWALILGILMTILLIV, 3.25; in that of APNGFKQHGNPHLYHSQGKGSYKHDRVVPQSRASAQ, 4.31.
The figure for RSAAERWKAFSTCAAHLTVVSLFYGTLFFMYVQPKV is 2.84; for TVLIEQFGWFIADPLCSLFIAILIFLSVVPLIKDAC it is 0.549.
The figure for MRLLILTCLVAVALARPKLPLRYPERLQNPSESSEP is 1.63.
In the case of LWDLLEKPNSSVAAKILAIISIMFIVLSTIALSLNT, the enrichment score was 2.64.
In the case of TTTLFRAVNPELFIKPNKPVMAFGLVTLSLCVAYIG it was -2; in that of QRNGFACILLEDVFQLGQFIFIVTFTTFLLRCVDYN, 1.01.
On to VKEVVRRQEAGLGDPSLVALVVFGALTAALVLATVL, for which the enrichment score was 2.79.
The figure for NEEVARFYAAAMSGAGPWAAWPFLLSLALMLLWLPR is 4.45; for MDQTPPARPEYLVSGIRTPPVRRNSKLATLGRIFKP it is 2.25; for MGGLLLAAFLALVSVPRAQAVWLGRLDPEQLLEPWN it is -1.49.
Take SKPGPVSWKSLAITFAIGGALLAGMKHVKKEKAEKL: the enrichment score was 0.773.
The figure for WHNYPFQPLSSGLYHYYIMELAFYWSLMFSQFTDIK is -0.984.

Values taken from the supplement of paper PMC11237882.
